Results reported in the supplement of paper PMC10849652.
This is one part of the list.

Protein sequences, listed by entry. Tags and fused reporters are not part of them. Lines headed by an entry give the natural chain unless they say otherwise; changes in a name come on top.
UniProt Q9Y2Z0: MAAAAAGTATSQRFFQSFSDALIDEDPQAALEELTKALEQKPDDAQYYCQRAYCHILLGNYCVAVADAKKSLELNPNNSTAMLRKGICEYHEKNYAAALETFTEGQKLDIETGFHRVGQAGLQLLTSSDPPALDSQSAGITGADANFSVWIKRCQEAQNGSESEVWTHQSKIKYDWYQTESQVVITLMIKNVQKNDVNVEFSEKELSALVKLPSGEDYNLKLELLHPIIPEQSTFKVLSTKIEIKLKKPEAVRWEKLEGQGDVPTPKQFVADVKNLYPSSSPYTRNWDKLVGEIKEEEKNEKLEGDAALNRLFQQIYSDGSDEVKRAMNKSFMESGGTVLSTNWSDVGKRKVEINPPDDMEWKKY
UniProt Q13033: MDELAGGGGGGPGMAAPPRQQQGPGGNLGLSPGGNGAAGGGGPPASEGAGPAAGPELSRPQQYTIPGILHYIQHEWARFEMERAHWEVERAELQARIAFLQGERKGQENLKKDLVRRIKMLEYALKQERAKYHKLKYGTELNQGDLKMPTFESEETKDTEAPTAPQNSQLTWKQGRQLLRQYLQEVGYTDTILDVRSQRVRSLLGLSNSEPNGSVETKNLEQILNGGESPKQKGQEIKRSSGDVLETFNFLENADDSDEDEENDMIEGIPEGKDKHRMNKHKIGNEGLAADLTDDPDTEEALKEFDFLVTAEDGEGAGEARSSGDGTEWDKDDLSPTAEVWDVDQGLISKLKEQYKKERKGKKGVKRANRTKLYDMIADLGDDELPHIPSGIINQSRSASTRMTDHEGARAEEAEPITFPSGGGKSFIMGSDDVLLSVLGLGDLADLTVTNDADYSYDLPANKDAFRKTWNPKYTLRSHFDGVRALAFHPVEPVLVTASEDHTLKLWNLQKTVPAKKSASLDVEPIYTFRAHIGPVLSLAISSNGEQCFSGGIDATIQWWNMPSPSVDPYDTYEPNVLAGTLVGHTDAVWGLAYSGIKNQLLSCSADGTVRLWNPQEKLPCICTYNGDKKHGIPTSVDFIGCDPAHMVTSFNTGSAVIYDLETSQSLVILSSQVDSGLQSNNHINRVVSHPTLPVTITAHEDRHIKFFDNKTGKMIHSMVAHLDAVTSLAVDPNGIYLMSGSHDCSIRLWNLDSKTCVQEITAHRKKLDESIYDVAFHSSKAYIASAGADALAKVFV
UniProt Q8WUJ0: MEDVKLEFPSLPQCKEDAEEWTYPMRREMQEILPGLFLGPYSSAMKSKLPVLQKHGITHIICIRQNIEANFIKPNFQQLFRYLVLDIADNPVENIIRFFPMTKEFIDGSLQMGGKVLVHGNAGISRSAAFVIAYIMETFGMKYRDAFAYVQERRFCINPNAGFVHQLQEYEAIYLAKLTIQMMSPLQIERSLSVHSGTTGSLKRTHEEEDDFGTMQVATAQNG
UniProt Q13043: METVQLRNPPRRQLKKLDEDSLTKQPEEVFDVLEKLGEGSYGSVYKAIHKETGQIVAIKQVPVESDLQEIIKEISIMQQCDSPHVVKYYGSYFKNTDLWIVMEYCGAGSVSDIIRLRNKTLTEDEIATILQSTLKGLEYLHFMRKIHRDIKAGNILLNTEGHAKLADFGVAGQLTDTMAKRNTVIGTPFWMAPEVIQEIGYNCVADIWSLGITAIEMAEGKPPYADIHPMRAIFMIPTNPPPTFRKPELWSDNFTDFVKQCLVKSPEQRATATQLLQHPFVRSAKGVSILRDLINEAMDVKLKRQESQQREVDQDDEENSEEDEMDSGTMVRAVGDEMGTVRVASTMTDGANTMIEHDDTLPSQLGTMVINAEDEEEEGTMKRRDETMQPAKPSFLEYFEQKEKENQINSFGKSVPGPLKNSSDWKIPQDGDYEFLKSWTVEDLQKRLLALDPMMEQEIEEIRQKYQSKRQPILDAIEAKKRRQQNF
UniProt Q9UH99: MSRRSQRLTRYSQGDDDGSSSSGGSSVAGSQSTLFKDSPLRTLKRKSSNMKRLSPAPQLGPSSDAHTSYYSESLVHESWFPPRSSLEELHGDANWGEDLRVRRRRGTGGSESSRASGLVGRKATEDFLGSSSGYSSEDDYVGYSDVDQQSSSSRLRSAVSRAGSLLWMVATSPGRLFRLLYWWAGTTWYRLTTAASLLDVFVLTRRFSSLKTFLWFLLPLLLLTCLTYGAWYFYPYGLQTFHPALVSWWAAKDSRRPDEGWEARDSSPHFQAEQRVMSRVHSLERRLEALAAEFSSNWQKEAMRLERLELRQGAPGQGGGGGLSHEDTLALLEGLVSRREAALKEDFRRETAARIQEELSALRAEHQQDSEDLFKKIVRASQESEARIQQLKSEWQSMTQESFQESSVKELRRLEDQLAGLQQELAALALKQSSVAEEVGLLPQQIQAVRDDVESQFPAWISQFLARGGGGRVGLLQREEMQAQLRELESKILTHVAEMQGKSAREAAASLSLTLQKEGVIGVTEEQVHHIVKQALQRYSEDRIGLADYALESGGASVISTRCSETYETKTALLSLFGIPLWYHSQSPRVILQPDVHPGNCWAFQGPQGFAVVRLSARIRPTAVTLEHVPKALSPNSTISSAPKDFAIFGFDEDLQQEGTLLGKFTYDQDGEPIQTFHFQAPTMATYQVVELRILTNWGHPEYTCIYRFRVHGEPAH
UniProt O60506: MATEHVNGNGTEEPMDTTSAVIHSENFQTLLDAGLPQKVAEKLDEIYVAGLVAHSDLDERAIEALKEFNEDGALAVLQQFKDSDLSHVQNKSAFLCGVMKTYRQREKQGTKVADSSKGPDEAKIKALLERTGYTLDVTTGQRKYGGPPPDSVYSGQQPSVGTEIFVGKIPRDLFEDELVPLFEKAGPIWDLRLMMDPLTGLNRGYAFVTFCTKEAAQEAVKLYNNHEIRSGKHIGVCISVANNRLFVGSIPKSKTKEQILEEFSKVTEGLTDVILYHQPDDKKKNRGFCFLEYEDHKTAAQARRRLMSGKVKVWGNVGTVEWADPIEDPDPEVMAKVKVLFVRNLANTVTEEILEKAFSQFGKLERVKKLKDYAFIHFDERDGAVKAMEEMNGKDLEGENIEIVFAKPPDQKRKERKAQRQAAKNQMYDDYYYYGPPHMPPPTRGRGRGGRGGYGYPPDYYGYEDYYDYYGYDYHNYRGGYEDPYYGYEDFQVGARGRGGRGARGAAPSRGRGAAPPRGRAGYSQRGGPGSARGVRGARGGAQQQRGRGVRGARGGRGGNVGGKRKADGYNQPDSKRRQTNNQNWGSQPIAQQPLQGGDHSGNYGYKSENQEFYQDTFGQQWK
UniProt Q9H668: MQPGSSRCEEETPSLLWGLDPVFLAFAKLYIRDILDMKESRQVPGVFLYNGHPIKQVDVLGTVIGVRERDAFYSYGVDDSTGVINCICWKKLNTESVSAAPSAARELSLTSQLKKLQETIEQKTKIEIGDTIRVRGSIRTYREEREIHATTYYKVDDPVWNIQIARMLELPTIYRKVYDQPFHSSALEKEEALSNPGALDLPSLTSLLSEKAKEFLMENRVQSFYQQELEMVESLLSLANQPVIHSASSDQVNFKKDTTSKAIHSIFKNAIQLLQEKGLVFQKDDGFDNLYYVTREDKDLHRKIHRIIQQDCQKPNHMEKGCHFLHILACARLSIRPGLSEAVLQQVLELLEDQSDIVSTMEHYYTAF
UniProt O75716, whole entry, looked up: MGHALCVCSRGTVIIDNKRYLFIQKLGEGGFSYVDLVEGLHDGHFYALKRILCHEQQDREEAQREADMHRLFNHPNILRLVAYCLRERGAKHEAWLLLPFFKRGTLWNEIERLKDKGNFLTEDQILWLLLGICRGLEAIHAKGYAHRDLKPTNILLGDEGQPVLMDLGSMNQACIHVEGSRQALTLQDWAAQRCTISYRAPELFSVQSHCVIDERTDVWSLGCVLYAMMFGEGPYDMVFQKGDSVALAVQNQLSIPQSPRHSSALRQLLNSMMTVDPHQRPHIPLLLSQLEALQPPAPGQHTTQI
UniProt P21675, whole entry, looked up: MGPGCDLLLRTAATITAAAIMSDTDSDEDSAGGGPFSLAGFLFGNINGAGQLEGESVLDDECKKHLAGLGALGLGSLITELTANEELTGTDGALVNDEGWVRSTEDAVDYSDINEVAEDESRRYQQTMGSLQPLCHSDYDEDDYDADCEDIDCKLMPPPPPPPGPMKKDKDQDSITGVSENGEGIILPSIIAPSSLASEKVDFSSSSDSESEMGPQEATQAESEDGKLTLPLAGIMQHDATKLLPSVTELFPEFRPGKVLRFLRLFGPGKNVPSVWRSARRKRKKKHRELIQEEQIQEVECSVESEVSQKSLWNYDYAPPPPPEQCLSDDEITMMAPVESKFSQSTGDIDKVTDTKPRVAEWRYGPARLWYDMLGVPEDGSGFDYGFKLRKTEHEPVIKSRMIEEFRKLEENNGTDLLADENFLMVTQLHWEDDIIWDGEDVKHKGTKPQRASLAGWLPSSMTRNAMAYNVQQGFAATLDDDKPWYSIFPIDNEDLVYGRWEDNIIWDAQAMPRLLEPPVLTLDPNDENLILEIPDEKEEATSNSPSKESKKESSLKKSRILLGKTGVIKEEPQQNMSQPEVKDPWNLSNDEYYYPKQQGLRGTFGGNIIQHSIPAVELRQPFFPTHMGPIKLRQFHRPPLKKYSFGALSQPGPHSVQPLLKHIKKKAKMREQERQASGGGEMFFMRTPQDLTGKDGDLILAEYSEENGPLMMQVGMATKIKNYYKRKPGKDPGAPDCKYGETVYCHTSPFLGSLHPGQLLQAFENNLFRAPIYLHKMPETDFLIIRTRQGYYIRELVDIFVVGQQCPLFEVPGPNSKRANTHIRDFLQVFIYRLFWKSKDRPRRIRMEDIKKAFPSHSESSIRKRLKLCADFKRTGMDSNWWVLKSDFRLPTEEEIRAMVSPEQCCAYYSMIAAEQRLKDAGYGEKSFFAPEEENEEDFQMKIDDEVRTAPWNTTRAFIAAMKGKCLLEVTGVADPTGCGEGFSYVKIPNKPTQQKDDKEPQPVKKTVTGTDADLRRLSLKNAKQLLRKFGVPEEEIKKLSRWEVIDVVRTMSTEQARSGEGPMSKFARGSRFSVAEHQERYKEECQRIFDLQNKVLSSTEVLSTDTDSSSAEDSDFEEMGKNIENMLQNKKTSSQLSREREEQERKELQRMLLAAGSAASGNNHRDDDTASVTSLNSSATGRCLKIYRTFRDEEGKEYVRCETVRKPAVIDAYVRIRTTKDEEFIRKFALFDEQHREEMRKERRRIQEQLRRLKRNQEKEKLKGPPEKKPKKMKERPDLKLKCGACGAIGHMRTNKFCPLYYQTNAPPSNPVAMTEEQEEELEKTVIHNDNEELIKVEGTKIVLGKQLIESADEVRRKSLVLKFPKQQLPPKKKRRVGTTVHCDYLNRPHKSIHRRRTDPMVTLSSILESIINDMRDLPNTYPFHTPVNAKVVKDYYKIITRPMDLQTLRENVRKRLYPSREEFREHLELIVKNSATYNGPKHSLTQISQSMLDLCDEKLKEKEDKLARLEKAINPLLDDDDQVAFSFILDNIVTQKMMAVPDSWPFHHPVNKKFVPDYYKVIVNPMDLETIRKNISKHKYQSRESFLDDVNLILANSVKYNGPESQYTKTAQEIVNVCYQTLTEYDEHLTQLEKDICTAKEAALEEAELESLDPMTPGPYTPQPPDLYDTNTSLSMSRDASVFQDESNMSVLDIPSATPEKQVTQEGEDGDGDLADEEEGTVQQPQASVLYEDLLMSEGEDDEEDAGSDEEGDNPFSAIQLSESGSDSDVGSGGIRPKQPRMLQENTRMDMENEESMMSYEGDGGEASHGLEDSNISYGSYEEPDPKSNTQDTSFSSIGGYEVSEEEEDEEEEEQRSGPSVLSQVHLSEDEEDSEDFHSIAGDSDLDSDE
UniProt O75478: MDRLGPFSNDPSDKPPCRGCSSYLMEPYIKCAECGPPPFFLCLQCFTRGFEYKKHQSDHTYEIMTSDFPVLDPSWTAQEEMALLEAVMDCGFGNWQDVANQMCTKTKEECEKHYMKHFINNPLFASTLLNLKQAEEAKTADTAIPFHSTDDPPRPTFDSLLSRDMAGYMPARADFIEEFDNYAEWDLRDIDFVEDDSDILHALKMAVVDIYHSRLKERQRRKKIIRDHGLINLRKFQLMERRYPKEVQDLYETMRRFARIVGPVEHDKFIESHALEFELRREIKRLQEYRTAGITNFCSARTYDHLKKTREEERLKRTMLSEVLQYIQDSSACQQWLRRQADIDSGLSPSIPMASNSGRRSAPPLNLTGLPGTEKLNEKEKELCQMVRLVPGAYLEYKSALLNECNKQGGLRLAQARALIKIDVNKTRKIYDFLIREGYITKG

Assays:
Assay in all cases: log2 fold change, soluble protein after heating vs DMSO (PISA); higher = thermal stabilisation; K562 lysate, 10 uM; active = over 0.2 and 3.5 SD of the protein, either way, in both replicates (recomputed)
[1] = compound: C#Cc1cccc(Nc2ncnc3cc(OCCOC)c(OCCOC)cc23)c1 [erlotinib]
Method in brief: (§1)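 Log-two fold change in thermal stability relative to solvent controls is reported from duplicates. For each sample, crude K562 extract from dounce-homogenised pellets in PBS pH 7.4 with 1 mM MgCl2, at 1 mg/mL protein, was treated with 10 μM compound for 30 min. Aliquots heated for 3 min across 48°C-58°C were pooled, brought to 0.5% NP-40 at 4°C and cleared at 21,000xg for 90 min. The supernatant was quantified by TMTpro 16plex LC-MS/MS with channel sums equalised.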

[2] = compound: C/C(=N\NC(=O)C1=CC(=CC=C1)S(=O)(=O)N2CCOCC2)/C3=C(C=CC(=C3)Cl)O
Method in brief: as §1

[3] = compound: C1=CC(=CC=C1C2=NC3=C(N2)C=C(C=C3)C(=O)N)OC4=CC=C(C=C4)Cl
Method in brief: as §1

[4] = compound: C1=CC2=C(C=CC(=C2)/C=C\3/C(=O)NC(=NCC4=CC=CS4)S3)N=C1
Method in brief: as §1

[5] = compound: C1=CC2=NC=CN=C2C=C1/C=C/3\C(=O)NC(=O)S3
Method in brief: as §1

[6] = compound: C1=CC=C(C=C1)C2=NC(=C(N2)C3=CC=NC=C3)C4=CC(=C(C=C4)Cl)O
Method in brief: as §1

[7] = compound: C1=CC=C2C(=C1)C3=NNC4=CC=CC(=C43)C2=O
Method in brief: as §1

[8] = compound: C1CCN(C1)C(=O)NC2=CC=CC(=C2)NC3=NC=C(C(=N3)NCCC4=CN=CN4)Br
Method in brief: as §1

[9] = compound: C1CN(CCC1(CC2=CC=C(C=C2)Cl)N)C3=NC=NC4=C3C=CN4
Method in brief: as §1

[10] = compound: C1COCCN1CCN2C3=CC=CC=C3N=C2NC(=O)C4=CC(=CC=C4)[N+](=O)[O-] [IRAK-1-4 Inhibitor I]
Method in brief: as §1

[11] = compound: C=CC(=O)N1CCC[C@@H](n2nc(-c3ccc(Oc4ccccc4)cc3)c3c(N)ncnc32)C1 [ibrutinib]
Method in brief: as §1

[12] = compound: CC(=O)c1cnc2ccc(-c3cc(Cl)c(O)c(Cl)c3)nc2c1N[C@H]1CC[C@H](CN(C)C)CC1
Method in brief: as §1

[13] = compound: CC(C)(C)Cn1c(N)nc2ccc(-c3[nH]c(C(C)(C)C)nc3-c3ccc(F)cc3)nc21 [ralimetinib]
Method in brief: as §1

[14] = compound: CC(C)(O)CC(=O)NCCn1ccc2ncnc(Nc3ccc(Oc4cccc(C(F)(F)F)c4)c(Cl)c3)c21
Method in brief: as §1

[15] = compound: CC(C)C1=C2N=C(C=C(N2N=C1)NCC3=CC=CC=C3)NCCCCCCN
Method in brief: as §1

[16] = compound: CC1=C(C(CC(=O)N1)C2=CC=C(C=C2)C(F)(F)F)C(=O)NC3=C(C=C4C(=C3)C=NN4)F
Method in brief: as §1

[17] = compound: CC1=C(C2=C(C=C1)C(=O)C3=CC=CC=C3N2CCCN)C
Method in brief: as §1

[18] = compound: CC1=C(C=C(C=C1)NC(=O)C2=CC(=CC=C2)C(C)(C)C#N)NC3=CC4=C(C=C3)N=CN(C4=O)C
Method in brief: as §1

[19] = compound: CC1=C(C=C(C=C1)NC(=O)C2=CC(=CC=C2)N(C)C)NC(=O)C3=CC=C(C=C3)O
Method in brief: as §1

[20] = compound: CC1=CC=C(C=C1)SC2=C3C=C(SC3=CN=C2)C(=O)N
Method in brief: as §1

Measured: log2 fold change

SUGT1 (UniProt Q9Y2Z0)
inactive: [1] -0.01 | [2] -0.001 | [3] 0.018 | [4] -0.023 | [5] -0.024 | [6] 0.055 | [7] 0.022 | [8] -0.017 | [9] -0.02 | [10] -0.027 | [11] 0.006 | [12] 0.018 | [13] -0.003 | [14] 0.035 | [15] 0.01 | [16] 0.004 | [17] 0.006 | [18] 0.003 | [19] 0.029 | [20] -0.007

STRN3 (UniProt Q13033)
inactive: [1] -0.032 | [2] 0.018 | [3] 0.031 | [4] 0.011 | [5] 0.003 | [6] 0.004 | [7] 0.017 | [8] 0.02 | [9] -0.038 | [10] 0.012 | [11] 0.03 | [12] 0.019 | [13] -0.015 | [14] 0.012 | [15] -0.007 | [16] 0.071 | [17] -0.024 | [18] -0.005 | [19] 0.029 | [20] 0.033

STYX (UniProt Q8WUJ0)
inactive: [1] 0 | [3] 0.058 | [5] 0.036 | [6] -0.022 | [8] 0.066 | [9] 0.104 | [10] 0.025 | [11] 0.016 | [12] 0.082 | [13] 0 | [14] -0.05 | [15] -0.023 | [16] -0.012 | [17] 0.024 | [18] 0.033 | [19] -0.031 | [20] 0.002

SUGT1 isoform 2 (UniProt Q9Y2Z0)
inactive: [1] -0.111 | [2] 0.047 | [3] 0.09 | [4] -0.033 | [5] -0.097 | [6] -0.025 | [7] -0.083 | [8] 0.029 | [9] 0.026 | [10] 0.005 | [11] 0.257 | [12] 0.025 | [13] 0.037 | [14] 0.071 | [15] -0.069 | [16] -0.043 | [17] 0.011 | [18] 0.081 | [19] 0.008 | [20] 0.02

STK4 (UniProt Q13043)
inactive: [1] -0.013 | [2] -0.15 | [3] -0.033 | [4] -0.061 | [5] -0.008 | [6] -0.009 | [7] 0.165 | [8] 0.187 | [9] 0.053 | [10] 0.018 | [11] 0.056 | [12] 0.324 | [13] -0.006 | [14] 0.007 | [15] 0.004 | [16] -0.023 | [17] -0.015 | [18] -0.036 | [19] 0.024 | [20] -0.07

Taken from above (three entries):
STYX (UniProt Q8WUJ0)
inactive: [1] 0 | [3] 0.058 | [5] 0.036 | [6] -0.022 | [8] 0.066 | [9] 0.104 | [10] 0.025 | [11] 0.016 | [12] 0.082 | [13] 0 | [14] -0.05 | [15] -0.023 | [16] -0.012 | [17] 0.024 | [18] 0.033 | [19] -0.031 | [20] 0.002

SUGT1 isoform 2 (UniProt Q9Y2Z0)
inactive: [1] -0.111 | [2] 0.047 | [3] 0.09 | [4] -0.033 | [5] -0.097 | [6] -0.025 | [7] -0.083 | [8] 0.029 | [9] 0.026 | [10] 0.005 | [11] 0.257 | [12] 0.025 | [13] 0.037 | [14] 0.071 | [15] -0.069 | [16] -0.043 | [17] 0.011 | [18] 0.081 | [19] 0.008 | [20] 0.02

STK4 (UniProt Q13043)
inactive: [1] -0.013 | [2] -0.15 | [3] -0.033 | [4] -0.061 | [5] -0.008 | [6] -0.009 | [7] 0.165 | [8] 0.187 | [9] 0.053 | [10] 0.018 | [11] 0.056 | [12] 0.324 | [13] -0.006 | [14] 0.007 | [15] 0.004 | [16] -0.023 | [17] -0.015 | [18] -0.036 | [19] 0.024 | [20] -0.07

(list continues)

SUGP1 (UniProt Q8IWZ8)
inactive: [1] -0.007 | [2] -0.044 | [3] 0.064 | [4] -0.024 | [5] 0 | [6] -0.01 | [7] 0.036 | [8] -0.007 | [9] -0.018 | [10] 0.006 | [11] 0.059 | [12] 0.02 | [13] -0.009 | [14] 0.013 | [15] -0.008 | [16] 0.016 | [17] 0.019 | [18] -0.003 | [19] -0.03 | [20] -0.035

SUN2 isoform 2 (UniProt Q9UH99)
inactive: [1] -0.08 | [2] 0.038 | [3] -0.238 | [4] 0.067 | [5] -0.002 | [6] -0.026 | [7] -0.192 | [8] -0.144 | [9] 0.041 | [10] -0.049 | [11] -0.113 | [12] 0.086 | [13] 0.055 | [14] 0.073 | [15] 0.063 | [17] -0.042 | [18] -0.001 | [19] -0.072 | [20] 0.062

SYNCRIP isoform 3 (UniProt O60506)
inactive: [1] -0.027 | [2] 0.155 | [3] -0.143 | [4] 0.034 | [5] -0.018 | [6] -0.02 | [7] -0.03 | [8] -0.018 | [9] 0.01 | [10] -0.117 | [11] -0.015 | [12] -0.16 | [13] 0.008 | [14] -0.039 | [15] 0.195 | [16] 0.002 | [18] 0.058 | [19] 0.119 | [20] 0.004

STN1 (UniProt Q9H668)
inactive: [1] -0.126 | [2] 0.049 | [3] 0.142 | [4] 0.075 | [5] -0.098 | [6] 0.019 | [7] -0.061 | [8] -0.045 | [9] 0.043 | [10] 0.034 | [11] 0.133 | [12] -0.187 | [13] 0.151 | [14] -0.071 | [15] -0.056 | [16] 0.106 | [18] -0.016 | [19] 0.051 | [20] 0.035

STK16 (UniProt O75716)
inactive: [1] -0.023 | [2] -0.108 | [3] 0.035 | [4] -0.3 | [6] -0.005 | [7] 0.351 | [8] 0.207 | [9] 0.01 | [10] -0.036 | [12] 0.567 | [13] 0.091 | [14] 0.089 | [15] -0.053 | [17] -0.004 | [18] -0.146 | [19] 0.065 | [20] -0.026

TAF1 isoform 4 (UniProt P21675)
inactive: [1] 0.011 | [2] 0.083 | [3] -0.029 | [4] -0.055 | [6] 0.028 | [7] -0.011 | [8] 0.012 | [9] -0.024 | [10] -0.036 | [12] -0.008 | [13] 0.052 | [14] 0.078 | [15] -0.019 | [16] -0.157 | [17] -0.039 | [18] 0.014 | [19] 0.004 | [20] 0.122

TADA2A (UniProt O75478)
inactive: [1] -0.001 | [3] 0.147 | [6] 0.035 | [10] 0.136 | [13] 0.008 | [14] -0.078 | [15] 0.152 | [16] -0.043 | [18] 0.124 | [19] -0.015
